# In PMC5431351:
# The chains behind the UniProt entries cited, without tags or fusion partners. Where a name states a change or a piece, a line headed by the entry shows the natural chain unless it says otherwise.
# UniProt O43237: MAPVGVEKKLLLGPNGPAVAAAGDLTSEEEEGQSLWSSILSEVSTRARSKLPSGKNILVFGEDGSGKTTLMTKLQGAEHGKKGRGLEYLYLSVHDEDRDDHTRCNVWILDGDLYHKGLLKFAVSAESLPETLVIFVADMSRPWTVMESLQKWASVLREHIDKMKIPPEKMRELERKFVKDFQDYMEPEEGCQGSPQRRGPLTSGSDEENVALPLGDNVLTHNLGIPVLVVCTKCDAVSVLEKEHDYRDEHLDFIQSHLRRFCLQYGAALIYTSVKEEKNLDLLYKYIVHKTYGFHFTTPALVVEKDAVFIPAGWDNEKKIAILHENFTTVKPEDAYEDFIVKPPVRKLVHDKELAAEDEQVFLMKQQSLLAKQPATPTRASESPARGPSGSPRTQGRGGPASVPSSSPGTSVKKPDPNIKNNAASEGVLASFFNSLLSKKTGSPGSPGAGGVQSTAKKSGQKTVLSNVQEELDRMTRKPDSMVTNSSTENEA
# UniProt Q9Y6G9: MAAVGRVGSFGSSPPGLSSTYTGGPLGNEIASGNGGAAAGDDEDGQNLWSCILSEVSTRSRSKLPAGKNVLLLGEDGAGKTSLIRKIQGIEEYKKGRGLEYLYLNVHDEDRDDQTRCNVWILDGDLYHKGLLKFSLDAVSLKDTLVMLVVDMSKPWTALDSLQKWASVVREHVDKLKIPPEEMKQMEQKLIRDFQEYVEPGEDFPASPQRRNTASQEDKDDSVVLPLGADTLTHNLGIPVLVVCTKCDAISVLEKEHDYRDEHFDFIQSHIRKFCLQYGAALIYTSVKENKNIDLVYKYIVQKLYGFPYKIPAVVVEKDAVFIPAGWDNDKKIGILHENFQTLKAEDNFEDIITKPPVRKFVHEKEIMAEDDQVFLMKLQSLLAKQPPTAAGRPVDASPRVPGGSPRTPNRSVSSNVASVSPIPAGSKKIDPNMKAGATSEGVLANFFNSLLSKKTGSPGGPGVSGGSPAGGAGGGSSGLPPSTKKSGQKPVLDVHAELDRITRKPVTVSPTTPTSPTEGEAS
# UniProt P62258: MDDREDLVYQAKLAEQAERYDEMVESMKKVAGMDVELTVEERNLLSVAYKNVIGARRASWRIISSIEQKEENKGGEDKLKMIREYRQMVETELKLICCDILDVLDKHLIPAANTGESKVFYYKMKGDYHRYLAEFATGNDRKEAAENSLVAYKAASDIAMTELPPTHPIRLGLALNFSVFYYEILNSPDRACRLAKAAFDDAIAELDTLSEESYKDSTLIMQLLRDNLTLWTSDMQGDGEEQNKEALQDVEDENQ
# Results are given in words; binding and its absence hold for the method and conditions named. In cells and extracts the contact can be indirect. Some binding calls cover weakened binding; strength is not graded here.
# Columns and labels:
# [1] = target: MTAP-mVenus-hLIC2 (SBP-tagged human dynein Light Intermediate Chain 2) (human) (UniProt O43237); experiment: pull-down; affinity purification of SBP-tagged MTAP-mVenus-hLIC1 or -hLIC2 on a Streptactin-HP column from mitotically enriched lysates of stably expressing cells; lysis buffer 50 mM Tris pH 7.5, 125 mM sodium chloride, 1 mM EGTA, 0.2 NP-40, 5% glycerol; eluates immunoblotted
# [2] = target: MTAP-mVenus-hLIC1 (SBP-tagged human dynein Light Intermediate Chain 1) (human) (UniProt Q9Y6G9); experiment: as above
substance,measurement,setting,value
14-3-3 heterodimer consisting of its ε and ζ proteins (from UniProt P62258 1-255; P63104 1-245) (complex),binding,[1],binds
same,binding,[2],no binding
